Results from US20130171159A1, “PHOSPHORYLATED TWIST1 AND METASTASIS” (priority 2010, published 2013).
At least one compound was matched to its structure with a doubt left.

Tests used:
Format in all cases: cell-based, murine
[1] = system: Akt phosphorylation on S473; assay: Immunoblotting of Akt phosphorylation in 4T1 cells treated with LY294002; details: 50 nM LY294002, after 30 min incubation
[2] = system: 4T1 cells; assay: Wound healing cell migration assay (live-imaging microscopy); details: 4T1 cells starved overnight, pre-treated 2 h, serum-containing medium with 20 nM LY294002, recorded for 20 h
[3] = system: Twist1 phosphorylation (S42); assay: Immunoblotting of endogenous Twist1 phosphorylation in 4T1 cells treated with LY294002; details: 50 nM LY294002, immunoblotting

O=c1cc(N2CCOCC2)oc2c(-c3ccccc3)cccc12 [LY294002]
Akt phosphorylation on S473 [1]: declined | serum-stimulated migration [2]: reduced to the basal level | Twist1 phosphorylation [3]: strongly inhibited
